Data as given in PubChem BioAssay AID1053208 (Peter MacCallum Cancer Centre, 2014)

Test: 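Synthetic lethal interactions between gene loss and doxorubicin in osteosarcoma cells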 (primary screen)
Cells: mouse osteosarcoma cells, early-passage culture from an engineered mouse model of fibroblastic bone tumour
Reagents: siRNA pool against mouse genes, 40 nM
Duration: about 120 h (48 h before drug, then 72 h with drug)
Treatment: doxorubicin 100 nM for 72 h, roughly 30-40% inhibitory dose
Measured: 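Luminescent ATP signal taken as viability with or without 100 nM doxorubicin for 72 h; mean of two wells set against non-targeting siRNA and turned into robust z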
Reading the numbers: viability z-score with doxorubicin: higher = more viable cells under doxorubicin; viability z-score without drug: higher = more viable cells with knock-down alone
Active means: 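a pool counts as active when its viability z-score with doxorubicin is -2 or below and its z-score without drug lies between -2 and 2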
The whole screen tested about 17,000 reagents; below is an unselected part. 788 of all reagents (4.7%) were called active. 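Calls rest on z-score classes alone; an extra cut-off of viability at most 70% of control was not applied to them.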 Not all columns of the deposit are shown.

| Gene | combined z-score class | viability z-score with doxorubicin | viability z-score without drug | Call |
| --- | --- | --- | --- | --- |
| Vmn1r37 | no change with or without drug | -0.79 | 0.84 | inactive |
| Ip6k3 | no change with or without drug | -0.45 | -1.35 | inactive |
| Zfp763 | no change with or without drug | 0.11 | -0.51 | inactive |
| Nudt11 | high cell count without drug only | 0.79 | 2.19 | inactive |
| Mrpl43 | low cell count without drug only | -1.69 | -3.54 | inactive |
| Mindy2 | no change with or without drug | -1.35 | -0.51 | inactive |
| Cysltr1 | no change with or without drug | 0 | -0.51 | inactive |
| Ebp | no change with or without drug | -1.69 | -0.84 | inactive |
| Or2y13 | no change with or without drug | 0 | -0.51 | inactive |
| Atp5po | no change with or without drug | -0.11 | -0.34 | inactive |
| Mlx | no change with or without drug | 0.11 | 0.17 | inactive |
| Gnal | no change with or without drug | -0.34 | 0.84 | inactive |
| Ppp3cb | no change with or without drug | 1.35 | 0.84 | inactive |
| Selenon | no change with or without drug | 0.22 | -0.17 | inactive |
| Nobox | no change with or without drug | 0.56 | 0.84 | inactive |
| 5930403N24Rik | high cell count without drug only | -0.79 | 2.19 | inactive |
| Vipas39 | no change with or without drug | 0.67 | 0.84 | inactive |
| Hsd17b3 | no change with or without drug | 0 | -1.35 | inactive |
| Gng4 | no change with or without drug | 0.45 | -0.17 | inactive |
| Ttc41 | no change with or without drug | 1.35 | 0.51 | inactive |
| Vmn1r84 | no change with or without drug | 0.67 | -0.17 | inactive |
| Igsf11 | no change with or without drug | -0.9 | 0.17 | inactive |
| Dnaja4 | no change with or without drug | 0 | -0.51 | inactive |
| Pcgf2 | no change with or without drug | 1.35 | -0.51 | inactive |
| Pbx3 | no change with or without drug | 0.67 | -0.51 | inactive |
| Kank4 | no change with or without drug | -0.11 | 0.34 | inactive |
| Ear2 | no change with or without drug | 0.22 | 1.35 | inactive |
| Sh3bp5 | no change with or without drug | -1.12 | -0.51 | inactive |
| Wfdc2 | no change with or without drug | 0.67 | 1.18 | inactive |
| Mtmr10 | no change with or without drug | 0.22 | -0.17 | inactive |
| Gpatch3 | no change with or without drug | -1.24 | 1.18 | inactive |
| Nxpe2 | no change with or without drug | 0.45 | 0.34 | inactive |
| Gsk3b | no change with or without drug | -0.56 | -1.35 | inactive |
| Meox1 | no change with or without drug | -0.22 | 1.18 | inactive |
| Pip5k1b | no change with or without drug | 0.9 | -0.34 | inactive |
| Or8u8 | no change with or without drug | -0.22 | 0 | inactive |
| Myo1g | no change with or without drug | 1.35 | -0.34 | inactive |
| Wrnip1 | no change with or without drug | 1.24 | 0.51 | inactive |
| Anapc2 | low cell count with doxorubicin only | -2.25 | 0.17 | active |
| Ep400 | no change with or without drug | -1.46 | -1.18 | inactive |
| Plcd4 | no change with or without drug | 1.35 | 1.18 | inactive |
| Fahd2a | no change with or without drug | 0.67 | 1.01 | inactive |
| Mis18bp1 | no change with or without drug | -1.57 | -0.17 | inactive |
| Tnni2 | no change with or without drug | -0.56 | -0.34 | inactive |
| Acot9 | no change with or without drug | -1.12 | -0.84 | inactive |
| Mmp1b | no change with or without drug | -1.91 | -1.18 | inactive |
| Cyp4f15 | no change with or without drug | -0.22 | -0.51 | inactive |
| Smad2 | no change with or without drug | 1.12 | 0.17 | inactive |
| Cyp2c50 | no change with or without drug | 1.35 | 1.52 | inactive |
| Mapkapk3 | no change with or without drug | -0.67 | 0.67 | inactive |
